Source: PMC7819943, “Rice protein-binding microarrays: a tool to detect cis-acting elements near promoter regions in rice”
Some of the results follow.

The chains behind the UniProt entries cited, without tags or fusion partners.
UniProt Q0JBA9, entry or part of it: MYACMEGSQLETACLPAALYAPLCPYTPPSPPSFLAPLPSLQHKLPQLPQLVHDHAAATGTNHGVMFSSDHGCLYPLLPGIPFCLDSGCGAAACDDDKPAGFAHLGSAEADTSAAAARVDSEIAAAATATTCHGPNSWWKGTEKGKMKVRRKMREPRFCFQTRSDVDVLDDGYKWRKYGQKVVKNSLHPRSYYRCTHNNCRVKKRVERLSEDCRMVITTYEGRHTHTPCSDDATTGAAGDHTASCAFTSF

biological target: OsWRKY34 (Oryza sativa, UniProt Q0JBA9 1-250); experiment: protein-binding microarray (RPBM); PBS, 2% BSA, 51.3 ng/ul salmon testes DNA, 50 uM zinc acetate, 200 nM TF, 25 C, 1 h; high values mean tight binding; conditions: protein: recombinant; tags: N-terminal polyhistidine and DsRed monomer fusion (pET32a); label: CyDye5-dUTP incorporated in the synthesized complementary strand; 3' TTTTT single-stranded linker to array surface; dsDNA, one strand shown
Procedure, shortened: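 Transcription factors were made in E. coli BL21-CodonPlus as N-terminal fusions to a polyhistidine tag and DsRed, then purified on Ni–NTA. After primer extension with Cy5-dUTP and blocking with 2% BSA, a custom Agilent array was exposed for 1 h at 25 °C to 200 nM protein in PBS, 2% BSA, salmon testes DNA and 50 µM zinc acetate. Washed arrays were scanned on an Axon 4000B, and the binding signal is per-feature fluorescence intensity in arbitrary units.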

Row | Sequence | binding signal
1 | AGTCAAATCGCTTTCACTAACACTAGTTTATTACCATATTCGGAGTCACCTAGTGCAG | 8460 fluorescence intensity (a.u.)
2 | ATAGTTTGTTTTTAAATGCATATTTTTCGCGATTTCCAAACGGAGTCACCTAGTGCAG | 9450 fluorescence intensity (a.u.)
3 | GACACCCTGCATGGCATTCGCACGCCATTGACACATATCTCGGAGTCACCTAGTGCAG | 8450 fluorescence intensity (a.u.)
4 | TGGTCTGCATGTTTATTATCTAGGTTTTTCATTCTTCTTTCGGAGTCACCTAGTGCAG | 11700 fluorescence intensity (a.u.)
5 | TGGTGGTGGCTGTCTCCTTTCCATCCTGTCGCGCACAGCACGGAGTCACCTAGTGCAG | 9200 fluorescence intensity (a.u.)
6 | TATACCTCTCTCTCTCTCTCTCTCTCTCTCTCTCTCTCTTCGGAGTCACCTAGTGCAG | 8280 fluorescence intensity (a.u.)
7 | ATGTAGTTTGCAATAGTTTGATGGAAATATTATCCTATTACGGAGTCACCTAGTGCAG | 8440 fluorescence intensity (a.u.)
8 | TACACCGTCCCAACCGGCTTTGTTTGACTTGTCCGACCAGCGGAGTCACCTAGTGCAG | 8330 fluorescence intensity (a.u.)
9 | CCCGTGGATTTGCCACCGTTTAACCGCGCCCTCTTTGAACCGGAGTCACCTAGTGCAG | 8430 fluorescence intensity (a.u.)
10 | CTGTTTCATATTACATGTACCTTTGACTTTTTAAGTTTGACGGAGTCACCTAGTGCAG | 13200 fluorescence intensity (a.u.)
11 | CTGGCTTAATGGCTAGTGTTTGTACTCGTGTATCCAACTACGGAGTCACCTAGTGCAG | 8600 fluorescence intensity (a.u.)
12 | GCTAATGGGCCAGCCGCCCAGCTCGTTTCTATCTGCAACACGGAGTCACCTAGTGCAG | 9420 fluorescence intensity (a.u.)
13 | GGGTTTCCGTGTCTAACTTTAGCTTTTCGTCTTATATGAACGGAGTCACCTAGTGCAG | 8900 fluorescence intensity (a.u.)
14 | AGCTACAGTTTGCAGTTGTTCCCTAATTGTTGACCCTTTTCGGAGTCACCTAGTGCAG | 10400 fluorescence intensity (a.u.)
15 | TACAACCCTGGCCCATGACGTCACCTACTCTTTCTCCTTTCGGAGTCACCTAGTGCAG | 12400 fluorescence intensity (a.u.)
16 | GATACCGTACTCTCTTAATTTCTTTTTAATATACGATGTACGGAGTCACCTAGTGCAG | 9390 fluorescence intensity (a.u.)
17 | CGATGAATGTATGATTGGGGTATTGTCAGTGTCATATTATCGGAGTCACCTAGTGCAG | 9180 fluorescence intensity (a.u.)
18 | GTTGTGTTGCCCGCTTGGAAAAATACCGACTTTTACATACCGGAGTCACCTAGTGCAG | 9700 fluorescence intensity (a.u.)
19 | TTCATTAAACCAGCCAGATTTGCCTCTCCGATTGGCTGCTCGGAGTCACCTAGTGCAG | 8550 fluorescence intensity (a.u.)
20 | TGGGTCATCTCATTACACCCGTCACGGATGAGATATTGTCCGGAGTCACCTAGTGCAG | 8290 fluorescence intensity (a.u.)
21 | CACCGACCCGCGCGCCGCGCCCACCTCCAGGCCGTCGAACCGGAGTCACCTAGTGCAG | 9690 fluorescence intensity (a.u.)
22 | CAGATGAACTACACTTGTTCTATTTTCTTTGGGTTGCTTTCGGAGTCACCTAGTGCAG | 8930 fluorescence intensity (a.u.)
23 | ACCATCACCGCCGTCGCGTCACCCGTCGCCGGCCGCCGACCGGAGTCACCTAGTGCAG | 8810 fluorescence intensity (a.u.)
24 | TATTTTTTAATTGCTACGTTTTTTCCATTCGTGTGATTAACGGAGTCACCTAGTGCAG | 11100 fluorescence intensity (a.u.)
25 | TATTTATTAACTTTGTCATATTTGTTCCATTTATACGACTCGGAGTCACCTAGTGCAG | 10700 fluorescence intensity (a.u.)
26 | CCGTAGCATATGAGCCAACTCCATCCCATCACTTGCTTCCCGGAGTCACCTAGTGCAG | 9850 fluorescence intensity (a.u.)
27 | AATATAGGTTTAGTGGCATTTAACAACTCACGCTTGAATCCGGAGTCACCTAGTGCAG | 8320 fluorescence intensity (a.u.)

Three records picked at random from the list so far, as already listed:
Row | Sequence | binding signal
20 | TGGGTCATCTCATTACACCCGTCACGGATGAGATATTGTCCGGAGTCACCTAGTGCAG | 8290 fluorescence intensity (a.u.)
2 | ATAGTTTGTTTTTAAATGCATATTTTTCGCGATTTCCAAACGGAGTCACCTAGTGCAG | 9450 fluorescence intensity (a.u.)
25 | TATTTATTAACTTTGTCATATTTGTTCCATTTATACGACTCGGAGTCACCTAGTGCAG | 10700 fluorescence intensity (a.u.)

Remaining list, next part.

Row | Sequence | binding signal
28 | GATTGGTTGTCATTCGGTCTCTTTTTCGTTTCTCGCATTACGGAGTCACCTAGTGCAG | 12900 fluorescence intensity (a.u.)
29 | GTTTACGGGTGGAATTTATAATTTGTTTTGTTATTAGTCCCGGAGTCACCTAGTGCAG | 10300 fluorescence intensity (a.u.)
30 | ATGCATTGACATACTAGTACCTTATACTACTCCTATGTGCCGGAGTCACCTAGTGCAG | 10000 fluorescence intensity (a.u.)
31 | CGCATAGTCGCAGCTCTTCTCTCTCTCGCTCGCTCGCTCGCGGAGTCACCTAGTGCAG | 8870 fluorescence intensity (a.u.)
32 | TAGCTTTTTACTGTTGGCCATGATGGTTGTCATCTTGTTTCGGAGTCACCTAGTGCAG | 12000 fluorescence intensity (a.u.)
33 | ATGCATGTACGCCCATGTTTAGTTCTAAACTTTTTCTTCGCGGAGTCACCTAGTGCAG | 8550 fluorescence intensity (a.u.)
34 | CACCCTCTCCCGTGTTCCACCCCGCCCGCGAATCATATCCCGGAGTCACCTAGTGCAG | 9340 fluorescence intensity (a.u.)
35 | CACTAGCTACCTTGGTCAACCATGGCTGCAGCTTCACCTTCGGAGTCACCTAGTGCAG | 8700 fluorescence intensity (a.u.)
36 | AGTATAGAGGTGAGCAGGTCAGACGAAGTGTTGCTGATTTCGGAGTCACCTAGTGCAG | 8380 fluorescence intensity (a.u.)
37 | CTCCCCTTAGCTTAACACACCACACACACCCACACTGGCACGGAGTCACCTAGTGCAG | 8150 fluorescence intensity (a.u.)
38 | ATGATTTGGCCCAAGAATCGCATCTCGTCGTGGATAAGACCGGAGTCACCTAGTGCAG | 8270 fluorescence intensity (a.u.)
39 | CGTGTGCTGAAATTTGTTAGTTGTACTCTCTTGTTTGACTCGGAGTCACCTAGTGCAG | 12700 fluorescence intensity (a.u.)
40 | TCCACTCCCAGTCCAGGGTCAGAAGCTTGCTGTTGAATTCCGGAGTCACCTAGTGCAG | 8520 fluorescence intensity (a.u.)
41 | CTACTTTTAACCATTTCAGTTATCTGTTTTTCTTTTCAATCGGAGTCACCTAGTGCAG | 10500 fluorescence intensity (a.u.)
42 | CTATGCCACTGACGTCACCTTTTCTATCCATCCTCTCCATCGGAGTCACCTAGTGCAG | 13700 fluorescence intensity (a.u.)
43 | TGCTCGTTTTAATTCCTACTGCCCTCTTGCTGCTCACCAACGGAGTCACCTAGTGCAG | 10500 fluorescence intensity (a.u.)
44 | GATCACCACCGCAATGGCTCGCCGCACCACGCGACTATTTCGGAGTCACCTAGTGCAG | 8560 fluorescence intensity (a.u.)
45 | TCTTCTCTTCTTTGCCCTTGCGCCGCCTTCTCCGCGGCATCGGAGTCACCTAGTGCAG | 11400 fluorescence intensity (a.u.)
46 | GCATTTTGGTCTTTTATCACTCTCCTTAAATCCTTTATATCGGAGTCACCTAGTGCAG | 12000 fluorescence intensity (a.u.)
47 | TTGGTCTCTCCTCGTCGCTGGGGTTCTTTGTTCTTGTAGTCGGAGTCACCTAGTGCAG | 10000 fluorescence intensity (a.u.)
48 | TCTCACACACACACGCAAACACACAGCTTGGACCTTGGACCGGAGTCACCTAGTGCAG | 9170 fluorescence intensity (a.u.)
49 | TTTCGTACCTGTAGCTTTATTACATCGCATTTCCTCTTATCGGAGTCACCTAGTGCAG | 9120 fluorescence intensity (a.u.)
50 | ATATTGACCTGACGTTTTCTTTGGTGGTACACATATATTACGGAGTCACCTAGTGCAG | 9430 fluorescence intensity (a.u.)
51 | AGAATACCCCGCCTATAAATACACCTCTTCTGCTCATCTTCGGAGTCACCTAGTGCAG | 8980 fluorescence intensity (a.u.)
52 | TTGTTGATGGTTGATCATTCCTTATGTTGACATGTTCATTCGGAGTCACCTAGTGCAG | 8580 fluorescence intensity (a.u.)
53 | AGTAGGGCACGCAGTTGATGGGGTATGATTACACATGTTTCGGAGTCACCTAGTGCAG | 9590 fluorescence intensity (a.u.)
54 | ACCGCCTGCTTCTCGTCGCTCGTCCGCCATCACCGACCGCCGGAGTCACCTAGTGCAG | 15500 fluorescence intensity (a.u.)
